Record: PubChem BioAssay AID743454 (Peter MacCallum Cancer Centre, 2014)
The whole screen tested about 18,000 reagents; below is a random part of them. 450 of them (2.5%) count as active. 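Single biological run; no consistent viability z cut-off exists, so the class columns, not z-scores, define the calls.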 A number with no mark means an inactive call.

- Aim: 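Genes whose loss kills vorinostat-resistant colon cancer cells under vorinostat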 (primary screen)
- Cells: human HCT116-VR colon cancer cells, selected for vorinostat resistance
- Knock-down reagent: siRNA pool against human genes, 40 nM siRNA pool
- Duration: vorinostat for 24 h, read-out about 72 h after transfection
- Conditions: vorinostat at 2.5 µM final
- Detection: 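Two measures, CellTiter-Fluor viability and luminescent caspase 3/7 activity, each as fold change against same-plate mock wells, mean of duplicates, then screen-wide robust z-score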
- Reading the numbers: viability robust z-score: higher = more viable cells than screen typical; caspase robust z-score: higher = more caspase 3/7 activity than screen typical
- Active means: 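a knock-down is a hit when classed RV1 or RV2 for lowered viability, or CA1 or CA2 for caspase activation; those lethal without drug were dropped; hits were retested singly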

| target gene | viability hit class | caspase hit class | viability robust z-score | caspase robust z-score |
| --- | --- | --- | --- | --- |
| ANKRD26 | no change | no change | 0.05 | -0.56 |
| FRMPD4 | no change | no change | 0.32 | 0.53 |
| OTOA | no change | no change | -0.69 | 1.16 |
| NRDC | no change | no change | -0.52 | 4.8 |
| PARP3 | no change | no change | -0.57 | 0.08 |
| UMPS | no change | no change | 0.04 | -0.48 |
| ECI2 | no change | no change | -0.77 | 0.3 |
| DGAT2 | no change | no change | 0.9 | 0.6 |
| MSANTD1 | no change (active) | CA1 (caspase activation) | -2.77 | 5.9 |
| GMPS | no change | no change | -0.97 | -0.25 |
| ADIPOR2 | no change | no change | 0.25 | 0.81 |
| UNG | no change | no change | 0.8 | 0.44 |
| DUOX1 | no change | no change | 0.8 | 0.01 |
| GCNT4 | no change | no change | -0.26 | -0.99 |
| LINC00173 | no change | no change | -0.4 | -0.31 |
| TMC5 | no change | no change | -0.26 | 0 |
| PLAC1 | no change | no change | 1.17 | -0.05 |
| ECM1 | no change | no change | -0.06 | -0.01 |
| COQ7 | no change | no change | 1.14 | -0.73 |
| PRPSAP1 | no change | no change | -0.36 | -0.55 |
| MRGPRG | no change | no change | -1.05 | 3.02 |
| ZNF875 | no change | no change | 0.61 | -0.87 |
| CHD5 | no change | no change | -1.12 | -0.04 |
| NACC2 | no change | no change | -2.32 | 0.32 |
| TNFRSF9 | no change | no change | -1.36 | 2.01 |
| MPIG6B | no change | no change | 1.12 | 0.82 |
| SAR1A | no change | no change | 1.75 | -0.22 |
| DLG2 | no change | no change | 0.39 | -0.44 |
| MSMB | no change | no change | -0.29 | 2.68 |
| GALNT13 | no change | no change | -0.03 | 1.94 |
| YIPF3 | no change | no change | 0.02 | 0.29 |
| TEAD4 | no change | no change | 0.1 | 0.84 |
| ARHGAP20 | no change | no change | -1.66 | 2.88 |
| VSIG4 | no change | no change | -0.32 | 0.37 |
| SHANK1 | no change | no change | -0.29 | -0.78 |
| SALL2 | no change | no change | 1.42 | 0.42 |
| MNMIP1 | no change | no change | 0.66 | 1.52 |
| ZKSCAN3 | no change | no change | -1.06 | -1.13 |
| DTX1 | no change | no change | -1.29 | 3.02 |
| LACTB2 | no change | no change | 0.94 | -0.84 |
| CIAO1 | no change | no change | 0.44 | -0.36 |
| MGRN1 | no change | no change | -0.16 | -0.6 |
| CFAP68 | no change | no change | -0.52 | -0.43 |
| OVGP1 | no change | no change | 0.46 | -0.78 |
| PROK2 | no change | no change | 0.76 | -0.06 |
| GRAP2 | no change | no change | 0.86 | -0.36 |
| TNNC1 | no change | no change | -1.94 | 4.71 |
| MAPKAP1 | no change | no change | 0.66 | 0.36 |
| SPRR1A | no change | no change | 0.16 | 1.1 |
| MICU3 | no change | no change | -0.36 | -0.89 |
| CNFN | no change | no change | -0.4 | 1.73 |
| ACSBG2 | no change | no change | 0.94 | 0 |
| NOAZFP | RV2 (reduced viability) (active) | no change | -2.98 | 2.06 |
| ZNF10 | no change | no change | 1.21 | -0.32 |
| SLC38A7 | no change | no change | 0.48 | 0.65 |
| SMPD3 | no change | no change | -0.17 | -0.92 |
| CYP3A4 | no change | no change | 0.48 | 1.38 |
